Source: paper PMC8666670, “Malonyl-acyl carrier protein decarboxylase activity promotes fatty acid and cell envelope biosynthesis in Proteobacteria” (The Journal of Biological Chemistry, 2021)
These are yes or no findings as the source states them, for the method shown.

What was measured:
[1] = target: T1, acyl carrier protein (ACP), P0A6A8; assay: AUC; sedimentation analysis (methods: sedimentation velocity, 50,000 rpm, interference optics), 0.02 M Tris pH 7.5, 0.5 M NaCl, 20 °C, no reducing agents; both purified; conditions: remark: other sources report otherwise
T1 chain: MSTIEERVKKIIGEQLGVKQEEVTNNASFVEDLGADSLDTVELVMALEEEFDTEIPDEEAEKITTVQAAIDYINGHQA

[2] = target: MadA^N, amino-terminal GNAT domain of E. coli MadA (E. coli) (UniProt P0ADQ2); assay: SEC; gel filtration chromatography of the purified recombinant protein; both purified
[3] = target: MadA^N, amino-terminal GNAT domain of E. coli MadA (E. coli) (UniProt P0ADQ2); assay: AUC; sedimentation analysis (methods: sedimentation velocity, 50,000 rpm, interference optics), 0.02 M Tris pH 7.5, 0.5 M NaCl, 20 °C, no reducing agents; both purified

Row | Binder | binding [1] | binding [2] | binding [3]
1 | acyl carrier protein (ACP), P0A6A8 1-78 (protein) MSTIEERVKKIIGEQLGVKQEEVTNNASFVEDLGADSLDTVELVMALEEEFDTEIPDEEAEKITTVQAAIDYINGHQA | no binding |  | 
2 | MadA^N, amino-terminal GNAT domain of E. coli MadA (domain or fragment, UniProt P0ADQ2 1-161) MSQLPGLSRETRESIAMYHLRVPQTEEELERYYQFRWEMLRKPLHQPKGSERDAWDAMAHHQMVVDEQGNLVAVGRLYINADNEASIRFMAVHPDVQDKGLGTLMAMTLESVARQEGVKRVTCSAREDAVEFFAKLGFVNQGEITTPTTTPIRHFLMIKPV |  | no binding | no binding
